Test results taken from the supplement of paper PMC12889115.
Some of the results follow. These are raw signals, not scaled to a control.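 Primary screen: polymyxin B was added at a level permeabilizing Salmonella outer membranes while sparing inner membranes. DMSO wells, both with and without polymyxin B, established maximum growth. Plate-to-plate variation meant each plate was ranked on its own, and the lowest-OD600 compounds were selected as hits.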

Tested on: Salmonella enterica serovar Typhimurium SL1344
Assay: bacterial growth OD600 after 18 h with compound and polymyxin B; higher = more bacterial growth (less inhibition)
Conditions: 50 µM, Mueller-Hinton broth

| SMILES | bacterial growth OD600 (polymyxin B 0.75 µg/mL) | bacterial growth OD600 (polymyxin B 1 µg/mL) |
| --- | --- | --- |
| Cc1ccc(F)cc1CNC(=O)c1cc(CN2CCOCC2)on1 | 0.841 | – |
| C=CCNC(=O)c1coc(COc2cccc3cnccc23)n1 | – | 0.845 |
| COc1ccc(/C=C/C(=O)N2CCC3(CC2)CC3C(=O)N(C)Cc2nonc2C)cc1 (stereo unspecified) | 1.02 | – |
| COCCCC1CCN(C(=O)c2ccc(OC3CCN(C(=O)C4CC4)CC3)cc2)CC1 | – | 0.916 |
| CCOC(=O)N1CCC(N2CCOc3ccc(CN4CCCCC4C(=O)OC)cc3C2)CC1 (stereo unspecified) | 0.769 | – |
| Cc1ccc(Oc2ncccc2CNCc2c[nH]cn2)c(F)c1F | – | 1.11 |
| CC(C)CNc1ccc(C(=O)N2CCCN(c3ncccn3)CC2)cn1 | – | 1.01 |
| COc1cccc(CN2C(=O)NC(C)(C3CCN(C(=O)c4ccc(F)cc4)CC3)C2=O)c1OC (stereo unspecified) | 0.754 | – |
| COCCC(=O)N1CCC(Oc2ccc(C(=O)NCC3CCOCC3)cc2)CC1 | – | 0.848 |
| Fc1ccccc1Cc1noc(CN2CCN(c3cccc(Cl)c3)CC2)n1 | – | 0.584 |
| CC(C)CNC(=O)C1CCC(=O)N(C2CC2)C1 (stereo unspecified) | – | 0.963 |
| COc1ccc(OC)c(-c2nc(CN3CCN(c4cnccn4)CC3)c(C)o2)c1 | 0.795 | – |
| COC(=O)C1CCCCN1Cc1ccc2c(c1)CN(Cc1ccc(Sc3nncn3C)o1)CCO2 (stereo unspecified) | 1.04 | – |
| O=C(CCc1cnccn1)N1CCCC(CCc2ccc(F)cc2F)C1 (stereo unspecified) | 0.804 | – |
| COC(=O)C1CCN(C(=O)CC(c2ccccc2)c2ccccc2Cl)CC1 (stereo unspecified) | – | 0.026 |
| CCc1noc(C)c1C(=O)N1CCc2onc(-c3cccc(OC)c3)c2C1 | – | 0.951 |
| COC(=O)c1cccc(-c2cc(Cl)c3c(c2)CC(CNC(=O)c2ccnn2C)O3)c1 (stereo unspecified) | 0.069 | – |
| CCCCN(C)C(=O)c1sc2ncnc(NCCc3ccccn3)c2c1C | 0.844 | – |
| O=C(NCCN1Cc2ccccc2OC(c2ccccc2F)C1)c1ccncc1 (stereo unspecified) | 0.605 | – |
| COc1ccc(OC)c(-c2cc(Cl)c3c(c2)CC(CNC(=O)c2c(F)cccc2F)O3)c1 (stereo unspecified) | 0.009 | – |
| COCCN1C(=O)CC(CC(=O)N(CC2CC2)CC2CCCO2)(c2ccccc2F)C1=O (stereo unspecified) | 0.819 | – |

Compounds above containing a Cl atom, in the order listed:

| SMILES | bacterial growth OD600 (polymyxin B 0.75 µg/mL) | bacterial growth OD600 (polymyxin B 1 µg/mL) |
| --- | --- | --- |
| Fc1ccccc1Cc1noc(CN2CCN(c3cccc(Cl)c3)CC2)n1 | – | 0.584 |
| COC(=O)C1CCN(C(=O)CC(c2ccccc2)c2ccccc2Cl)CC1 (stereo unspecified) | – | 0.026 |
| COC(=O)c1cccc(-c2cc(Cl)c3c(c2)CC(CNC(=O)c2ccnn2C)O3)c1 (stereo unspecified) | 0.069 | – |
| COc1ccc(OC)c(-c2cc(Cl)c3c(c2)CC(CNC(=O)c2c(F)cccc2F)O3)c1 (stereo unspecified) | 0.009 | – |
